Screen size: about 410,000 compounds; about 310 (0.076%) were called active. The inconclusive results got no clear call from the source; some entries with a clear call stand among them for comparison. The call rests on the fitted dose curve; in most records, active means well fitted activation curve with a large enough effect; inconclusive means small, poorly fitted or top-dose-only effect, or another doubt; inactive means no such curve, though single readings can be large or run the other way. Potencies of inconclusive entries are doubtful fits and often do not repeat.
target: Parathyroid hormone/parathyroid hormone-related peptide receptor (Homo sapiens) (UniProt Q03431); assay: qHTS for PTHR1 Agonists: Primary Screen; settings: HEK293 GP2 PTHR1 cells, GloSensor cAMP luminescence, 1 h; activation: at 115 µM (top of the series) unless noted; series mostly up to 115 µM; further: nearly all actives have a fitted effect of over 55% in size
How it was run: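 HEK-293-derived GP2 cells expressing PTHR1 and a GloSensor cAMP reporter, 3,000/well, plated overnight, given luciferin plus IBMX (each 0.5 mM as added) for 1 h at 37 °C, then compound for 1 h at 37 °C. Luminescence was read after 15 min at room temperature.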
Potency means the concentration at half of the fitted maximal effect.

By UniProt entry, the sequences of proteins in these tests, tags left out. Where a name states a change or a piece, a line headed by the entry shows the natural chain unless it says otherwise.
UniProt Q03431: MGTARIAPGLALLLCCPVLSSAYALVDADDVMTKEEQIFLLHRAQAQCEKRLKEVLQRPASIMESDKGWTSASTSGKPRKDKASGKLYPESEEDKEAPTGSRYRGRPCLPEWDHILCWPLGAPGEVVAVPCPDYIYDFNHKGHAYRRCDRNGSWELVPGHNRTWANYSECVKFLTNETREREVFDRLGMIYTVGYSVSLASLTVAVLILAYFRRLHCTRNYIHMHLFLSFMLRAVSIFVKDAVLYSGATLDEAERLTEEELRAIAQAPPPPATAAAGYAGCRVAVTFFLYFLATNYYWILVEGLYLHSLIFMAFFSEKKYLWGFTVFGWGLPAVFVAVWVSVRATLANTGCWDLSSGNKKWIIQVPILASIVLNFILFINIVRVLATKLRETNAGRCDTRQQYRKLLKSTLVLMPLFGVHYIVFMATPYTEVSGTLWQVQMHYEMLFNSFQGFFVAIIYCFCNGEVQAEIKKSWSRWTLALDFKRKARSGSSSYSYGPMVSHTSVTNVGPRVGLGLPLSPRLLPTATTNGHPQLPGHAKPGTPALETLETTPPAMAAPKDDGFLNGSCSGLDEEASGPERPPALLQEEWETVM

Potency, inactive:
Cc1ccc(OCC(O)Cn2c(=N)n(CCN3CCCCC3)c3ccccc32)cc1 (stereo unspecified)
Cc1cccc(/C=C/c2onc(C)c2S(=O)(=O)N2CCC(C(=O)N3CCC(C)CC3)CC2)c1

Potency, inconclusive:
Cc1ccc(C)c(N2CCN(c3nc4ccccc4c(=O)n3-c3ccccc3)CC2)c1 39.8 µM [activator, partial curve, poor fit]
Cc1[nH]c2ccccc2c1/C=C(/C#N)C(=O)NC(C)C 79.4 µM [activator, partial curve, poor fit]
Cc1cccc(CNC(=O)c2cnc3sc(N4CCCCCC4)nn3c2=O)c1 141 µM [activator, partial curve, poor fit]
COc1ccc(-c2nsc(NC(=O)c3oc4cc(C)c(C)cc4c3C)n2)cc1 100 µM [activator, single point]
Cc1ccc(CN2CCNC2=O)cc1 39.8 µM [activator, single point]
COc1ccc(C2C(C#N)=C(N)OC3=C2C(=O)CCC3)c(OC)c1OC (stereo unspecified) 50.1 µM [activator, partial curve, poor fit]
CCn1c(SCC(=O)NCC(=O)Nc2ccc(F)cc2)nnc1-c1cccs1 12.6 µM [activator, single point]
Cc1ccc(CS(=O)(=O)CCC(=O)O)cc1 126 µM [activator, single point]
CCC(C)NC(=O)C1c2ccccc2C(=O)N1Cc1ccc(OC)cc1OC (stereo unspecified) 39.8 µM [activator, single point]
COc1ccc(Br)cc1/C=N/NC(=O)CN1CCN(Cc2ccccc2)CC1 44.7 µM [activator, partial curve, poor fit]
COc1cc(OC)c(NC(=O)COCc2cc(-c3cccs3)on2)cc1Cl 126 µM [activator, single point]
Cc1cnc(C(=O)N2CCCC(C(=O)c3ccc(Cl)cc3C)C2)cn1 (stereo unspecified) 50.1 µM [activator, partial curve, poor fit]
Cc1ccc(-n2c(CCC(=O)O)ccc2-c2cccs2)cc1C 126 µM [activator, single point]
O=C(CCCC(=O)c1ccccc1)Nc1ccc(O)cc1 126 µM [activator, single point]
COc1cccc(OC(=O)CSc2nnc(-c3ccccc3OC)o2)c1 5.62 µM [activator, partial curve, poor fit]
CCc1nnc(NS(=O)(=O)c2ccc(Nc3ccc([N+](=O)[O-])c4nonc34)cc2)s1 20 µM [activator, partial curve, poor fit]
CCc1ccc(-n2c(SCC(=O)Nc3cccc(S(=O)(=O)NC4=NCCCCC4)c3)nc3ccccc3c2=O)cc1 126 µM [activator, single point]
Cc1cc(C)cc(NC(=O)Cn2nnc3ccccc3c2=O)c1 79.4 µM [activator, partial curve, poor fit]
CCCCN(Cc1ccccc1)S(=O)(=O)c1cc(Br)cc2c1N(C(C)=O)C(C)C2 (stereo unspecified) 39.8 µM [activator, single point]
Cc1ccc(OCc2nc3ccccc3n2C(C(=O)Nc2c(C)cccc2C)C2CC2)cc1 (stereo unspecified) 50.1 µM [activator, partial curve, poor fit]
Cc1ccc(O)c(Nc2ncnc3ccc([N+](=O)[O-])cc23)c1 10 µM [activator, partial curve, poor fit]
O=C(COC(=O)CNS(=O)(=O)c1ccc(Br)cc1Cl)NC1CCCC1 39.8 µM [activator, partial curve, poor fit]
Cc1[nH]c(=O)[nH]c(=O)c1/C=N/NC(=O)[C@@H](N)CC(C)C 17.8 µM [activator, partial curve, poor fit]
CCN(CC)S(=O)(=O)c1ccc(-c2nnc(SCC(=O)c3ccc(OC)cc3)o2)cc1 1.78 µM [activator, full curve, poor fit]
CCN1CCn2c1nc(N1CCCCC1)nc2=O 3.16 µM [activator, full curve, poor fit]
COc1ccc(NC(=O)CN2CCN(C3CCCCC3)C(=O)C2=O)cc1 35.5 µM [activator, partial curve]
CCCCNC(=O)C1(C)CCN1C(=O)c1c(F)ccc(C)c1F (stereo unspecified) 39.8 µM [activator, partial curve, poor fit]
COCCSc1ccccc1C(=O)N1CCN(Cc2ccccc2)CC1 158 µM [activator, single point]
O=C(O)CCC(=O)Nc1ccccc1C(=O)NCc1ccco1 50.1 µM [activator, single point]
COc1cc(NC(=O)c2ccco2)c(OC)cc1NC(=O)Nc1ccccc1Cl 39.8 µM [activator, single point]
NC(N)=NS(=O)(=O)c1ccc(NC(=S)NC(=O)/C=C/c2ccccc2)cc1 11.2 µM [activator, partial curve, poor fit]
CCCCCOc1ccc(NC(=O)C(=O)NCCCn2ccnc2)cc1 35.5 µM [activator, single point]
O=C(Cn1ccc(C(F)(F)F)n1)NNC(=O)c1ccco1 50.1 µM [activator, single point]
CCN(CC)S(=O)(=O)c1ccc(NC(=O)CN(c2cccc(F)c2)S(C)(=O)=O)cc1 50.1 µM [activator, partial curve, poor fit]
O=C(O)C1CC=CCC1C(=O)c1ccccc1 (stereo unspecified) 6.31 µM [activator, partial curve]

activation, inactive:
Cc1nc(-c2ccccc2)sc1CCNS(=O)(=O)c1ccccc1 -7.24%
COc1ccc(C(CNC(=O)COc2ccc(C)cc2)N2CCCCC2)cc1 (stereo unspecified) 1.3%
O=C(CSc1ncc2c(n1)-c1ccccc1N(Cc1ccc(F)cc1)S2(=O)=O)c1ccc(Cl)cc1 0.0552%
CC(C)OCCCN(Cc1ccco1)C(=O)c1cc2c(s1)-c1ccccc1OC2 -27.3%
COc1ccc(NC(=O)CN(C)C(=O)c2cccc(S(=O)(=O)N3CC4(C)CC3CC(C)(C)C4)c2)cc1 (stereo unspecified) -24.6%
Cc1ccc(-c2nc3ccccc3n2C)o1 -5.03%
CCC(C)NC(=O)c1cc2c(Cl)nc3ccc(C)cc3c2s1 (stereo unspecified) -1.56%
CCSc1nc(=O)n(-c2ccccc2)c(C)c1C(C)=O -13%
O=C(NCCc1ccccc1)c1ccc2c(=O)[nH]c3c(C(=O)NCC4CCCO4)sc(=S)n3c2c1 (stereo unspecified) -18%
O=Cc1c(NCc2ccco2)nc2ccccn2c1=O -2.2%
CCOc1ccc(CC(=O)NCCc2sc(-c3cccc(F)c3)nc2C)cc1 -74.9%
Cc1ccc(-c2cc(C(F)F)n3ncc(C(=O)Nc4c(C)nn(Cc5ccccc5Cl)c4C)c3n2)cc1 -5.74% [at 57.5 µM]
CN(C)/C=C/C(=O)c1ccc(Oc2ncccn2)cc1 -13.2%
CCNC(=O)N1CCN(CCCC(c2ccc(F)cc2)c2ccc(F)cc2)CC1 -30.8%

An excerpt from above in order of heavy-atom count, largest number first:
activation, inactive:
Cc1ccc(-c2cc(C(F)F)n3ncc(C(=O)Nc4c(C)nn(Cc5ccccc5Cl)c4C)c3n2)cc1 -5.74% [at 57.5 µM]
COc1ccc(NC(=O)CN(C)C(=O)c2cccc(S(=O)(=O)N3CC4(C)CC3CC(C)(C)C4)c2)cc1 (stereo unspecified) -24.6%
CCNC(=O)N1CCN(CCCC(c2ccc(F)cc2)c2ccc(F)cc2)CC1 -30.8%
COc1ccc(C(CNC(=O)COc2ccc(C)cc2)N2CCCCC2)cc1 (stereo unspecified) 1.3%
CCC(C)NC(=O)c1cc2c(Cl)nc3ccc(C)cc3c2s1 (stereo unspecified) -1.56%
CN(C)/C=C/C(=O)c1ccc(Oc2ncccn2)cc1 -13.2%
Cc1ccc(-c2nc3ccccc3n2C)o1 -5.03%

Following part.

activation, inconclusive:
CN1C(=O)C(=O)N(c2cccc(C(F)(F)F)c2)C1=O 32.4% [activator]
Cc1c(Cl)cccc1NC(=S)N1CCc2ccccc2C1 -39.6% [activator]
COc1ccc(C(C)=O)c2c(O)cccc12 31.6% [activator] [at 57.5 µM]
CCCN1CCN(c2ccc(S(N)(=O)=O)cc2[N+](=O)[O-])CC1 74.6% [activator]
Cc1ccc(NC(=O)COC(=O)c2ccco2)cc1S(=O)(=O)N1CCOCC1 43.5% [activator]
COC(=O)c1ccc(COc2nc(C)cc(C)c2C#N)o1 -60.3% [activator]
COc1ccc(C(=O)O)cc1Nc1nc2ccc(C)cc2n2cnnc12 78.6% [activator]
CCC(CC)C(=O)Nc1cccc(-c2nc3cccnc3s2)c1C 125% [activator]
CCc1ccc(-n2c(=O)c3c(C)c(C(=O)N(C)C)sc3n(CC(=O)Nc3cc(Cl)ccc3C)c2=O)cc1 30.4% [activator]
CC(=O)N1CCN(CC(C)(C)NS(=O)(=O)c2ccc(C)cc2)CC1 40.5% [activator]
COc1ccccc1CNC(=O)C1CCN(c2ncnc3c2nc2n3CCCCC2)CC1 31% [activator]
Cc1ccc(C)c(C(=O)N2CCN(c3ncccn3)CC2)c1 36.1% [activator]
O=C(O)c1ccc(COc2ccc3c4c(c(=O)oc3c2)CCC4)o1 -69.2% [activator] [at 57.5 µM]

Arranged by molar mass (rising): three of the compounds above.
activation, inconclusive:
COC(=O)c1ccc(COc2nc(C)cc(C)c2C#N)o1 -60.3% [activator]
Cc1ccc(NC(=O)COC(=O)c2ccco2)cc1S(=O)(=O)N1CCOCC1 43.5% [activator]
COc1ccccc1CNC(=O)C1CCN(c2ncnc3c2nc2n3CCCCC2)CC1 31% [activator]

Following part:

outcome, inactive:
CCOC(=O)c1cnc2ccc(OCC)cc2c1N1CCN(c2ccccc2OC)CC1
FC(F)(F)c1ccccc1-c1ccc2nncn2c1
O=C1c2ccccc2-c2cccnc21
COc1cc2cc(C(=O)N3CCOCC3)cc(-c3ccc(C)cc3)c2cc1OC
COc1ccc(OC(=O)c2nc(SCc3ccc(C)cc3)ncc2Cl)cc1
CCOC(=O)N=Nc1c(O)n(CC(=O)OC)c2ccccc12
CCOc1ccccc1NC(=O)CSc1nc2ccccc2nc1Cc1ccc(C)cc1

From PubChem BioAssay AID743266 (National Center for Advancing Translational Sciences (NCATS), 2014)
